# Test results as given in publication PMC7819943, “Rice protein-binding microarrays: a tool to detect cis-acting elements near promoter regions in rice”.
# Some of the results follow.
# Target: T1, OsSMF1 (Oryza sativa, UniProt Q6ZLB0 1-436)
# T1 sequence: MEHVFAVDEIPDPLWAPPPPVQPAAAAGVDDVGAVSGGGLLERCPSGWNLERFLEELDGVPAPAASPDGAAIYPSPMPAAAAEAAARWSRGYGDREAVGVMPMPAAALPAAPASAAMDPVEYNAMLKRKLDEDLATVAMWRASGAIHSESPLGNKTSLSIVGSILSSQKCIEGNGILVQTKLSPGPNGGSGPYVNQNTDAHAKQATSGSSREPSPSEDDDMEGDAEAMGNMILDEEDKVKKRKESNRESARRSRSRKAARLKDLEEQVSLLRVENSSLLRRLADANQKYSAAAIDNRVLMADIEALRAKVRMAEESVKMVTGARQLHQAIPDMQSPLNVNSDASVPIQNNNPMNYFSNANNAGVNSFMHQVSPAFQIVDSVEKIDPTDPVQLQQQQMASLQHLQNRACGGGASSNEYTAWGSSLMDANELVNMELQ
# Assay: protein-binding microarray (RPBM); PBS, 2% BSA, 51.3 ng/ul salmon testes DNA, 50 uM zinc acetate, 200 nM TF, 25 C, 1 h; high values mean tight binding
# Conditions: protein: recombinant; tags: N-terminal polyhistidine and DsRed monomer fusion (pET32a); chain copies: 2; label: CyDye5-dUTP incorporated in the synthesized complementary strand; 3' TTTTT single-stranded linker to array surface; dsDNA, one strand shown
# Method in brief: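 Ni–NTA purification followed expression in E. coli BL21-CodonPlus of transcription factors fused N-terminally to a polyhistidine tag and DsRed. At 200 nM in PBS with 2% BSA, salmon testes DNA and 50 µM zinc acetate, the protein was incubated for 1 h at 25 °C with a custom Agilent array that had been primer-extended with Cy5-dUTP and blocked with 2% BSA. After washing, the array was read on an Axon 4000B scanner. The binding signal is per-feature fluorescence intensity in arbitrary units.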
row,Sequence,binding signal
1,TGTCTGTGTTTGTCCTGACTGATGATGCATTGACTCGTTGCGGAGTCACCTAGTGCAG,3490 fluorescence intensity (a.u.)
2,AGTTAATGGAGGAGCCACCGCCACGTAAGTGCCACGTAGGCGGAGTCACCTAGTGCAG,56200 fluorescence intensity (a.u.)
3,GGATTTACTGTCCTAAGTTTAATGGTAGAGTCATACATCTCGGAGTCACCTAGTGCAG,3420 fluorescence intensity (a.u.)
4,GGCGGAGGCGTGGGCGTCGACGGGGCGGGAAATACGCCAACGGAGTCACCTAGTGCAG,3490 fluorescence intensity (a.u.)
5,ACAGGTGGGGCCAGCACGCCACGTCTGACGTCTCCCTCTCCGGAGTCACCTAGTGCAG,14100 fluorescence intensity (a.u.)
6,TTCAACATTCGCAAATTCCCACGTAATGATTACTTTTAGACGGAGTCACCTAGTGCAG,3970 fluorescence intensity (a.u.)
7,AGGGGAAGGAAGCGCCTCGACCAACGTGGGTGCGGGTGGCCGGAGTCACCTAGTGCAG,3920 fluorescence intensity (a.u.)
8,CCTGCAGCCAGGTCCTCGTATCATAGATGACGACGACTTCCGGAGTCACCTAGTGCAG,4660 fluorescence intensity (a.u.)
9,CTCTCCAACTCGAGGAGGACACGCACGTTGCCACCACAGGCGGAGTCACCTAGTGCAG,3770 fluorescence intensity (a.u.)
10,TGTTTAGATACTAATTTAGAGTATTAAACATACATTAATTCGGAGTCACCTAGTGCAG,3450 fluorescence intensity (a.u.)
11,CGTCTCCTTCTTTTCCACGCCGCCGTCACGGAGTTCTCCTCGGAGTCACCTAGTGCAG,13200 fluorescence intensity (a.u.)
12,GCGCCGCTAATCCCTGTATCGCTGGACACGACACGTGCCCCGGAGTCACCTAGTGCAG,7780 fluorescence intensity (a.u.)
13,GTGGTTGGCTGGTCGTTGCGTGGCCACCGCCTCCTCCCGACGGAGTCACCTAGTGCAG,4010 fluorescence intensity (a.u.)
14,ATTGTATAAGATCTGAAACTCACTGACTCACCTGTATTTGCGGAGTCACCTAGTGCAG,4230 fluorescence intensity (a.u.)
15,TCAACTATAAAATTGTAGATCGCGTCGAGGGCTACAAGTTCGGAGTCACCTAGTGCAG,3490 fluorescence intensity (a.u.)
16,GAGTGGTGTGCTGGGACGTGGCTGGGCAGGACTAGCCCTCCGGAGTCACCTAGTGCAG,5340 fluorescence intensity (a.u.)
17,ATGCCTACACACCACCACGCATGCACACCATCACACACATCGGAGTCACCTAGTGCAG,4940 fluorescence intensity (a.u.)
18,TGCACTGCCAAACACCACCTATTGCTCACAGGTGCGCCCGCGGAGTCACCTAGTGCAG,4180 fluorescence intensity (a.u.)
19,TTTGGATTGAGGGACGATTTTGTAATTCGATGACAAGTTGCGGAGTCACCTAGTGCAG,3380 fluorescence intensity (a.u.)
20,GCTGCACTCATCAGTGACCAGTGACCTCACTATCTAGTCACGGAGTCACCTAGTGCAG,3350 fluorescence intensity (a.u.)
21,TTGCCATTAAAGTTCTAGATGATTGTACTTGATTTGCATTCGGAGTCACCTAGTGCAG,3200 fluorescence intensity (a.u.)

row,Sequence,binding signal
1,GTCCGATCATCTCACGTGGCATCTCGAAGCGGCCGCATTACGGAGTCACCTAGTGCAG,5980 fluorescence intensity (a.u.)
2,TTTTGCACACATGTATCATGCTGACGTCAGCATGACGTGGCGGAGTCACCTAGTGCAG,61200 fluorescence intensity (a.u.)
3,TGCCGGCGGTGTTCTACAACGTGACGTTCAAGCCGTCCAACGGAGTCACCTAGTGCAG,3410 fluorescence intensity (a.u.)
4,TTTGACTCCGATTTTATCCGACGTGGCAGCTGACTCAGCGCGGAGTCACCTAGTGCAG,25300 fluorescence intensity (a.u.)
5,AATTATTAGATAACATATGGCTATCCATATAAATAGTGTACGGAGTCACCTAGTGCAG,13600 fluorescence intensity (a.u.)
6,TTTAAATGTGATGATTTGTTAGTGGATGATGATGTATCATCGGAGTCACCTAGTGCAG,3400 fluorescence intensity (a.u.)
7,ATACTTGAGGCAAGGCAATGCCATGACAACATCTTCTCATCGGAGTCACCTAGTGCAG,4290 fluorescence intensity (a.u.)
8,TCCGTTTGATTTGCGTCCGCCTCGTCAGGATCTCGTCACCCGGAGTCACCTAGTGCAG,4380 fluorescence intensity (a.u.)
9,GGAGCTCCTGTTCACTGGCTTGGACAACCAATGGCGTGGCCGGAGTCACCTAGTGCAG,4080 fluorescence intensity (a.u.)
10,GTAGCCGTACGTGGTGCAGTGGTGCGTCGGGAACGAGCTGCGGAGTCACCTAGTGCAG,3330 fluorescence intensity (a.u.)
11,ATGGTTTCAGTACATGCTATTGACGTATGCTTTTCTATTTCGGAGTCACCTAGTGCAG,3930 fluorescence intensity (a.u.)
12,TGGTTCAGAAAGAATTGCCAAGACCGGAGCTGGAGGTGTGCGGAGTCACCTAGTGCAG,3640 fluorescence intensity (a.u.)
13,GTGGTGTTACGCTACTCGTGCAGTAGTGCCTCATCATGGGCGGAGTCACCTAGTGCAG,3500 fluorescence intensity (a.u.)
14,TTATTTAGCACTCGTTGCAACGTACGGATATTATGCTACTCGGAGTCACCTAGTGCAG,3210 fluorescence intensity (a.u.)
15,GCTTATTAAACCCCAAAAGAACAGCTCAGCTGGCTCCCACCGGAGTCACCTAGTGCAG,3440 fluorescence intensity (a.u.)
16,GTCTTCTTCTCCCTTTGTGCTGAGGTGGACGCGAAGCCGCCGGAGTCACCTAGTGCAG,7830 fluorescence intensity (a.u.)
17,CTCATTCTCTCGTGGACGCGGCAGTGGCGCCACGACCACGCGGAGTCACCTAGTGCAG,3890 fluorescence intensity (a.u.)
18,TGAGCACTAGAAGGATCATAGGATTTGTTGCCAGAGTTGGCGGAGTCACCTAGTGCAG,3170 fluorescence intensity (a.u.)
19,CGACCCTGTGACCAGGCGCATGCAGGTGTCACGCGATGTCCGGAGTCACCTAGTGCAG,4210 fluorescence intensity (a.u.)
20,CAACCTTATTCGTCACGCCAATTTGACAAAATGCAGTTATCGGAGTCACCTAGTGCAG,4080 fluorescence intensity (a.u.)
21,TGTCTTTGGGCTTTCAGGGCGGTGTGCTGAGGCCGAGCGGCGGAGTCACCTAGTGCAG,9300 fluorescence intensity (a.u.)

# Another view of part of the listing above.
row | Sequence | binding signal
1 | GTCCGATCATCTCACGTGGCATCTCGAAGCGGCCGCATTACGGAGTCACCTAGTGCAG | 5980 fluorescence intensity (a.u.)
2 | TTTTGCACACATGTATCATGCTGACGTCAGCATGACGTGGCGGAGTCACCTAGTGCAG | 61200 fluorescence intensity (a.u.)
